The list shows a part of the results. The main result of the screen is listed elsewhere. These columns were measured beside it and carry no call. Compounds called inactive in the main read-out are mostly missing here. The note in brackets gives the kind of curve behind each potency; many fits are weak. Peptide text beside a SMILES is read from it.
Test: qHTS assay for small molecule antagonists of peroxisome proliferator-activated receptor gamma signaling (AID 588537)
Settings: HEK293 PPARg-UAS-bla, beta-lactamase ratio, antagonist mode; measured here: W460 blue channel
How it was run: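 HEK293 cells, PPAR-gamma-UAS-bla, 3000/well. Pre-incubation 6-6.5 h, 37 C. Compound titration with rosiglitazone 50 nM final, 16 h. CCF4 dye, 2 h RT, dual-emission fluorescence.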

SMILES | AC50
CCC(C)(C)C | 0.0282 µM [falling, full curve, poor fit]
Cc1ccc(Cl)cc1 | 50.1 µM [rising, single point]
Cc1ccc(S(N)(=O)=O)cc1 | 70.8 µM [rising, single point]
C=CC(=C)CCC=C(C)C | 50.1 µM [rising, single point]
Cc1ccc2ncccc2c1 | 70.8 µM [rising, single point]
O=Cc1cccc(Br)c1 | 70.8 µM [rising, single point]
CCOc1ccc2nc(N)sc2c1 | 63.1 µM [rising, single point]
O=C1c2c(O)cccc2Cc2cccc(O)c21 | 63.1 µM [rising, single point]
C=CCOC(=O)CC(C)C | 0.00112 µM [falling, full curve, poor fit]
Nc1cc([N+](=O)[O-])ccc1C(=O)O | 70.8 µM [rising, single point]
Clc1cc(Cl)c(Cl)cc1Cl | 44.7 µM [rising, partial curve]
CC(=O)CCc1ccccc1 | 50.1 µM [rising, single point]
CCCC(Cl)CCCC(Cl)CCC(Cl)CCC(Cl)CCC(Cl)CCCC(Cl)CCC (stereo not given) | 7.08 µM [falling, partial curve, poor fit]
O=C(Cl)c1ccc(C(=O)Cl)cc1 | 0.0447 µM [falling, full curve, poor fit]
CCSC(=O)N(CC(C)C)CC(C)C | 0.00562 µM [falling, full curve, poor fit]
CCC(C)=O | 50.1 µM [rising, single point]
CCCCCCCCCCCCc1ccccc1 | 0.001 µM [falling, full curve, poor fit]
COc1ccc2nc(N)sc2c1 | 0.2 µM [falling, full curve, poor fit]
Nc1cc(C(=O)O)c(O)c(S(=O)(=O)O)c1 | 50.1 µM [rising, single point]
c1ccc2n[nH]nc2c1 | 17.8 µM [falling, partial curve, poor fit]

Another view of part of the listing above:
Cc1ccc(Cl)cc1
  AC50: 50.1 µM [rising, single point]
CC(=O)CCc1ccccc1
  AC50: 50.1 µM [rising, single point]

Continued:

SMILES | AC50
CCOc1ccccc1N | 70.8 µM [rising, single point]
NC(=O)NC(N)=O | 70.8 µM [rising, single point]
Cc1ccc([N+](=O)[O-])c(C)c1 | 70.8 µM [rising, single point]
CCCCOC(=O)/C=C\C(=O)OCCCC | 28.2 µM [falling, full curve, poor fit]
CCCCCCCCCCCCCCO | 0.00126 µM [falling, full curve, poor fit]
Cc1ccc(C)c(N)c1 | 50.1 µM [rising, single point]
Nc1ccc(-c2ccc(N)c(O)c2)cc1O | 35.5 µM [falling, partial curve, poor fit]
CC(=O)N(CCN(C(C)=O)C(C)=O)C(C)=O | 0.00355 µM [falling, full curve, poor fit]
O=[N+]([O-])c1cccc(Cl)c1Cl | 56.2 µM [rising, single point]
CC(=O)c1ccccn1 | 63.1 µM [rising, single point]
COC(=O)[C@H](Cc1ccccc1)NC(=O)[C@@H](N)CC(=O)O (H-Asp-Phe-OMe) | 10 µM [falling, full curve, poor fit]
O=C1NS(=O)(=O)c2ccccc21 | 0.00631 µM [falling, full curve, poor fit]
CC(=O)Nc1cccc(O)c1 | 44.7 µM [rising, single point]
C=Cc1ccc(C=C)cc1 | 63.1 µM [rising, single point]
O=C(O)c1ccccc1Cl | 50.1 µM [rising, single point]
O=C(Cl)c1ccc([N+](=O)[O-])cc1 | 50.1 µM [rising, single point]
O=C(O)CCSSCCC(=O)O | 63.1 µM [rising, single point]
O=C(/C=C/c1ccc(O)c(O)c1)O[C@@H](C(=O)O)[C@@H](OC(=O)/C=C/c1ccc(O)c(O)c1)C(=O)O | 63.1 µM [rising, single point]
C1OCOCO1 | 50.1 µM [rising, single point]
CCN(Cc1cccc(S(=O)(=O)O)c1)c1ccc(C(=C2C=CC(=[N+](CC)Cc3cccc(S(=O)(=O)O)c3)C=C2)c2ccccc2S(=O)(=O)[O-])cc1 | 0.00126 µM [falling, full curve, poor fit]

Reference: PubChem BioAssay (NCATS)
